Data as given in PubChem BioAssay AID1259308 (NCATS, 2017)
The deposit covers about 59,000 reagents; below is an unselected part. About 1,510 of all reagents (2.6%) were called active. 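Calls use total luciferase alone and ignore viability, so some active siRNAs may act by altering cell number.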 The numbers tell different reagents against one gene apart.

Purpose: 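Knock-downs that increase output of a recombinant reporter protein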 (primary screen)
System: human HEK293 embryonic kidney cells stably expressing firefly luciferase (HEK-CMV-Luc2-Hygro)
Reagent: single siRNA against human genes, 0.8 pmol siRNA per well
Time to read-out: 72 h
Measurement: 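Luciferase light (ONE-Glo) measured on one replicate plate set and viability (CellTiter-Glo) on the other, scaled to a negative control siRNA, with robust z-scores and luciferase per cell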
Scale: total luciferase, z-score and total luciferase, % of control: higher = more reporter protein produced; luciferase per cell, z-score: higher = more reporter output per viable cell; viable cells, % of control: higher = more viable cells
Active means: 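An siRNA counts as active if its total luciferase robust z-score exceeds 3; genes with two or more such siRNAs out of three were retested with fresh siRNAs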
Calls: active = raised luciferase; inactive = no rise

| gene | siRNA no. | total luciferase, z-score | total luciferase, % of control | luciferase per cell, z-score | viable cells, % of control | outcome |
| --- | --- | --- | --- | --- | --- | --- |
| ERCC6 | 1 | 0.985 | 101 | 0.878 | 90 | inactive |
| ERCC6 | 2 | 0.504 | 91.9 | -0.203 | 108 | inactive |
| ERCC6 | 3 | 0.94 | 101 | 0.211 | 106 | inactive |
| COPS7B | 1 | 0.14 | 84.7 | 0.32 | 87 | inactive |
| COPS7B | 2 | -1.1 | 60.1 | -1.33 | 95.2 | inactive |
| COPS7B | 3 | -0.145 | 79 | -0.694 | 106 | inactive |
| RPAP3 | 1 | -0.202 | 77.9 | -0.672 | 104 | inactive |
| RPAP3 | 2 | 0.593 | 93.7 | -0.128 | 108 | inactive |
| RPAP3 | 3 | 1.21 | 106 | 0.796 | 95.9 | inactive |
| AGPS | 1 | -0.9 | 64 | -1.59 | 109 | inactive |
| AGPS | 2 | 0.481 | 91.4 | 0.294 | 94.6 | inactive |
| AGPS | 3 | 0.202 | 85.9 | 0.123 | 92.9 | inactive |
| GPR153 | 1 | -0.281 | 76.3 | 0.832 | 68.5 | inactive |
| GPR153 | 2 | -0.317 | 75.6 | -0.797 | 104 | inactive |
| GPR153 | 3 | -0.0652 | 80.6 | 0.143 | 86.7 | inactive |
| MORC4 | 1 | 1.11 | 104 | 0.4 | 105 | inactive |
| MORC4 | 2 | -0.783 | 66.3 | -1.56 | 112 | inactive |
| MORC4 | 3 | -0.332 | 75.3 | -1.24 | 117 | inactive |
| NR6A1 | 1 | 0.757 | 96.9 | 0.893 | 85.6 | inactive |
| NR6A1 | 2 | 0.232 | 86.5 | 0.315 | 89 | inactive |
| NR6A1 | 3 | -0.223 | 77.5 | -0.0255 | 87.1 | inactive |
| CXCL5 | 1 | 0.196 | 85.8 | -0.514 | 110 | inactive |
| CXCL5 | 2 | 0.141 | 84.7 | -0.0249 | 95.3 | inactive |
| CXCL5 | 3 | -0.766 | 66.6 | -1.23 | 103 | inactive |
| ATP1A2 | 1 | 0.0569 | 83 | -0.262 | 99.4 | inactive |
| ATP1A2 | 2 | 0.359 | 89 | -0.188 | 105 | inactive |
| ATP1A2 | 3 | -0.73 | 67.4 | -1.01 | 98.2 | inactive |
| CPLANE1 | 1 | -0.232 | 77.3 | -0.135 | 89.5 | inactive |
| CPLANE1 | 2 | -0.188 | 78.2 | -0.118 | 90.1 | inactive |
| CPLANE1 | 3 | 0.512 | 92.1 | 0.585 | 88.2 | inactive |
| HAL | 1 | -0.257 | 76.8 | 0.88 | 68 | inactive |
| HAL | 2 | -0.228 | 77.3 | 0.229 | 81.4 | inactive |
| HAL | 3 | 2.47 | 131 | 2.21 | 81.8 | inactive |
| ASXL3 | 1 | 3.1 | 143 | 2.94 | 73.8 | active |
| ASXL3 | 2 | 0.0126 | 82.1 | 0.597 | 78.4 | inactive |
| ASXL3 | 3 | 0.858 | 99 | 0.776 | 90.1 | inactive |
| BARX1 | 1 | 3.68 | 155 | 2.45 | 90.9 | active |
| BARX1 | 2 | -1.84 | 45.3 | -0.029 | 51 | inactive |
| BARX1 | 3 | -1 | 61.9 | -1.22 | 95.4 | inactive |
| PLS1 | 1 | -0.425 | 73.4 | -0.672 | 98 | inactive |
| PLS1 | 2 | 0.924 | 100 | 1.85 | 68.8 | inactive |
| PLS1 | 3 | 0.874 | 99.3 | -0.082 | 113 | inactive |
| TMEM71 | 1 | 0.504 | 91.9 | -0.415 | 115 | inactive |
| TMEM71 | 2 | 0.199 | 85.9 | 0.0595 | 94.4 | inactive |
| TMEM71 | 3 | 0.401 | 89.9 | -0.604 | 118 | inactive |
| MIA | 1 | 0.992 | 102 | 0.724 | 93.8 | inactive |
| MIA | 2 | -2.06 | 40.9 | -2.14 | 80.3 | inactive |
| MIA | 3 | -1.45 | 53 | -1.28 | 83 | inactive |
| GOLGA2 | 1 | -0.565 | 70.6 | 0.0102 | 78.7 | inactive |
| GOLGA2 | 2 | 0.955 | 101 | 1.23 | 81.6 | inactive |
| GOLGA2 | 3 | 1.05 | 103 | 0.358 | 105 | inactive |
| ELOVL1 | 1 | -0.839 | 65.2 | -0.606 | 85.5 | inactive |
| ELOVL1 | 2 | 1.69 | 116 | 0.906 | 102 | inactive |
| ELOVL1 | 3 | -0.0065 | 81.8 | 0.676 | 76.5 | inactive |
| CTF1 | 1 | 1.59 | 113 | 0.973 | 98.1 | inactive |
| CTF1 | 2 | 2.5 | 132 | 1.91 | 88.8 | inactive |
| CTF1 | 3 | 0.661 | 95 | 0.566 | 91.5 | inactive |

Laid out differently: entries from further up
{"gene":"HAL","siRNA no.":2,"total luciferase, z-score":-0.228,"total luciferase, % of control":77.3,"luciferase per cell, z-score":0.229,"viable cells, % of control":81.4,"outcome":"inactive"}
{"gene":"HAL","siRNA no.":3,"total luciferase, z-score":2.47,"total luciferase, % of control":131,"luciferase per cell, z-score":2.21,"viable cells, % of control":81.8,"outcome":"inactive"}
{"gene":"ASXL3","siRNA no.":1,"total luciferase, z-score":3.1,"total luciferase, % of control":143,"luciferase per cell, z-score":2.94,"viable cells, % of control":73.8,"outcome":"active"}
{"gene":"ASXL3","siRNA no.":2,"total luciferase, z-score":0.0126,"total luciferase, % of control":82.1,"luciferase per cell, z-score":0.597,"viable cells, % of control":78.4,"outcome":"inactive"}
{"gene":"ASXL3","siRNA no.":3,"total luciferase, z-score":0.858,"total luciferase, % of control":99,"luciferase per cell, z-score":0.776,"viable cells, % of control":90.1,"outcome":"inactive"}
{"gene":"BARX1","siRNA no.":1,"total luciferase, z-score":3.68,"total luciferase, % of control":155,"luciferase per cell, z-score":2.45,"viable cells, % of control":90.9,"outcome":"active"}
{"gene":"BARX1","siRNA no.":2,"total luciferase, z-score":-1.84,"total luciferase, % of control":45.3,"luciferase per cell, z-score":-0.029,"viable cells, % of control":51,"outcome":"inactive"}
{"gene":"BARX1","siRNA no.":3,"total luciferase, z-score":-1,"total luciferase, % of control":61.9,"luciferase per cell, z-score":-1.22,"viable cells, % of control":95.4,"outcome":"inactive"}
{"gene":"PLS1","siRNA no.":1,"total luciferase, z-score":-0.425,"total luciferase, % of control":73.4,"luciferase per cell, z-score":-0.672,"viable cells, % of control":98,"outcome":"inactive"}
